# Library screening results

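Viability assay of Plasmodium falciparum sporozoites; the read-out is not stated. The concentration is filed as 10 mM, unlikely as a test dose, so the dose is not known. Higher reads as lower viability (inferred: compounds with an IC50 in retests scored well above the rest). Strong results were mostly tested again. Size under these conditions: about 34,000 compounds, about 280 of them at 50% or above in at least one test.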

The filed quantity is “Percent Effect” (%). The controls that fix the scale are not given in the record; negative values are as filed. This is an unselected part of the compounds tested. Two or more numbers in one place are separate tests of the same structure; such repeats can differ widely.

SMILES: CCCn1cc(S(=O)(=O)N[C@H]2CN(C(C)=O)C[C@@H]2C2CC2)cn1
percent effect: -4.737%

SMILES: COc1cccc(F)c1CN1CCC(c2nc(C)cc(C)n2)C1 (stereo not drawn)
percent effect: 10.65%

SMILES: O=c1cc(Cn2cncn2)nc2n1CCCN(CC1CC1)C2
percent effect: -1.23%

SMILES: COCCO[C@H]1CCN(C(=O)c2cc(C)on2)[C@H]1Cc1ccccc1
percent effect: 3.034%

SMILES: [H][C@@]12CCC(=O)N(c3ccccc3)[C@]1([H])CCN2C(=O)c1ccc(C)o1
percent effect: -8.42%

SMILES: O=C(O)C(F)(F)F.c1ccc(N2CCOC3(CCCN(c4ncccn4)C3)C2)nc1 (stereo not drawn)
percent effect: 14.18%

SMILES: CN(C)CC(=O)N1CCCC1c1ccccn1 (stereo not drawn)
percent effect: 1.489%

SMILES: C[C@H](N)Cn1nc(-c2cccs2)oc1=O.Cl
percent effect: -1.68%

SMILES: CN(C)C(=O)c1cn[nH]c1C1(C)CCN(c2ncccn2)CC1
percent effect: 12.03%

SMILES: CC(C)CCc1nc(CN2CCOC(Cn3cncn3)C2)cs1 (stereo not drawn)
percent effect: 4.385% and -7.263% and -18.89%

SMILES: N#CC1(NC(=O)Cc2cc(Cl)c3c(c2)OCCO3)CCC1
percent effect: -29.17%

SMILES: CCn1ncc(S(=O)(=O)N2CCCC3(CC=CNC3=O)C2)c1C (stereo not drawn)
percent effect: -14.32%

SMILES: CCCN(CC1COc2ccccc2O1)C(=O)CCn1cncn1 (stereo not drawn)
percent effect: -7.255%

SMILES: COc1c(CNC(c2ccccc2F)c2nccn2C)c(C)nn1C (stereo not drawn)
percent effect: -2.946%

SMILES: O=C(O)C(F)(F)F.[H][C@@]12COC[C@]1([H])[C@@H](OCC1CCOCC1)CN2Cc1ccc(C)o1
percent effect: 9.846%

SMILES: COc1ccccc1NC(=O)c1cnc(C2CCN(C(C)=O)C2)nc1C (stereo not drawn)
percent effect: 13.67%

SMILES: Cc1cnn(CC2CCCN2C(=O)c2ccc(Cl)cc2F)c1 (stereo not drawn)
percent effect: 3.916%

SMILES: CN(CCc1cnn(C)c1)C(=O)C(c1ccccc1F)N(C)C (stereo not drawn)
percent effect: -6.9%

SMILES: CSCC(=O)N1CCOC(c2nc(C(C)C)n[nH]2)C1 (stereo not drawn)
percent effect: -4.67%

SMILES: [H][C@@]12CCN(Cc3cc(C)on3)C[C@@]1([H])O[C@H](c1nccs1)C2
percent effect: -12.49%

SMILES: CC(C)Cc1cc(C(=O)NCCc2ccc(S(C)(=O)=O)cc2)[nH]n1
percent effect: 2.142%

SMILES: CC(C)(C)C(=O)NC(c1nccs1)C1CCN(CC2CCCCC2)CC1.Cl (stereo not drawn)
percent effect: 7.673%

SMILES: O=C(c1ccc2[nH]ccc2c1)N1CCn2cnc(COCC3CC3)c2C1
percent effect: 19.33%

SMILES: COc1c(C)cnc(CN(C)C(=O)c2ccccc2F)c1C
percent effect: -0.6689%

SMILES: CN(C)CCn1c(=O)oc2ccc(NC(=O)CC(C)(C)C)cc21
percent effect: -1.288%

SMILES: Cc1ccc(NC2CCN(C(=O)c3ccc(Cl)o3)CC2)nn1
percent effect: 4.946%

SMILES: CS(=O)(=O)N1CCCC1c1ccnc2nccn12 (stereo not drawn)
percent effect: 3.04%

SMILES: O=C(c1cn2cc(Cl)cnc2n1)N1CCOCC(O)(CN2CCCC2)C1 (stereo not drawn)
percent effect: -9.529%

SMILES: Cc1ccccc1OCCCC(=O)N1CCCC(n2cncn2)C1 (stereo not drawn)
percent effect: 1.27%

Repeated from the top, 3 entries:

SMILES	percent effect
CCCn1cc(S(=O)(=O)N[C@H]2CN(C(C)=O)C[C@@H]2C2CC2)cn1	-4.737%
COc1cccc(F)c1CN1CCC(c2nc(C)cc(C)n2)C1 (stereo not drawn)	10.65%
O=c1cc(Cn2cncn2)nc2n1CCCN(CC1CC1)C2	-1.23%

Data taken from ChEMBL document CHEMBL3988442, “University of Dundee, Small-Polar-MMV Screening Library” (2021).